# Laboratory results reported in US7754243B2, “Aqueous suspension of nanoscale drug particles from supercritical fluid processing” (Clemson University Research Foundation, priority 2004, dated 2010).
# Key:
# [1] = Stability of the product aqueous suspension against precipitation; format: physicochemical
# Experimental: (§1) A system similar to that illustrated in FIG. 1 was utilized to form aqueous suspensions of Ibuprofen particles. Specifically, a solution (0.25 mg/mL) of Ibuprofen (available from Sigma-Aldrich Corporation) in liquid carbon dioxide (high-purity, SFC grade obtained from Air Products Corporation) was prepared in the syringe pump 10. The solution was pushed through the heating unit 14 to reach the desired supercritical temperature of 40° C. before reaching the expansion nozzle 16. The rapid expansion was carried out at a pre-expansion pressure of 200 bar through a 50 μm orifice into an aqueous solution. FIG. 2A is an SEM analysis of the precipitate obtained when the receiving solution in the expansion chamber 18 was neat water. Initially, the aqueous suspension appeared homogeneous.
# [2] = Statistical analysis of SEM images of nanoparticles in the product aqueous suspension; format: physicochemical; details: PVP; drug/polymer weight ratio varied from 0.3 to 4 (Ibuprofen) or 0.3 to 2 (Naproxen)
# Experimental: as §1, with “A specimen” for “FIG. 2A is an SEM analysis”, “product suspension was prepared for SEM imaging by depositing a few drops of” for “precipitate obtained when”, “dilute nanoparticle” for “receiving solution in the expansion chamber 18 was neat water. Initially, the”, “onto a carbon tape, followed by drying under ambient condition and then coating with platinum before imaging. SEM images were obtained on a Hitachi S-4700 Field-Emission SEM system.” for “appeared homogeneous.”
smiles,measurement,setting,value
COc1ccc2cc([C@H](C)C(=O)O)ccc2c1 [Naproxen],stability of product suspension,[1],no sign of instability after several days
same,change in average particle size on variation of drug/polymer weight ratio,[2],insensitive
